Article PMC7819943, “Rice protein-binding microarrays: a tool to detect cis-acting elements near promoter regions in rice”
This is one part of the list.

The chains behind the UniProt entries cited, without tags or fusion partners.
UniProt Q0JBA9, entry or part of it: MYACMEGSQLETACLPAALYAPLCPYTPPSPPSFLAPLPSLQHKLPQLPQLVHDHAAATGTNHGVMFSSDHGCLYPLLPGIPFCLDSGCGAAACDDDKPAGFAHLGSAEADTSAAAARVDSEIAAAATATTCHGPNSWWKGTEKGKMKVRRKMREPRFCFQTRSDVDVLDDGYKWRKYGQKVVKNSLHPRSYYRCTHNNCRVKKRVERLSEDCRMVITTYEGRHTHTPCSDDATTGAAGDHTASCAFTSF

These sequences were tested against OsWRKY34 (Oryza sativa, UniProt Q0JBA9 1-250) (assay: protein-binding microarray (RPBM); PBS, 2% BSA, 51.3 ng/ul salmon testes DNA, 50 uM zinc acetate, 200 nM TF, 25 C, 1 h; high values mean tight binding). Details: protein: recombinant; tags: N-terminal polyhistidine and DsRed monomer fusion (pET32a); label: CyDye5-dUTP incorporated in the synthesized complementary strand; 3' TTTTT single-stranded linker to array surface; dsDNA, one strand shown.
Method in brief: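 For the binding signal, per-feature fluorescence intensity was read in arbitrary units on an Axon 4000B scanner. Before scanning, a 2% BSA-blocked custom Agilent array made double-stranded with Cy5-dUTP was washed after 1 h at 25 °C with 200 nM protein and 50 µM zinc acetate. The proteins were Ni–NTA-purified transcription factors with N-terminal polyhistidine and DsRed fusions, expressed in E. coli BL21-CodonPlus.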
In the case of “CGTCTCTCTCACCTCGCCGCTGCATCATCTCCTGCTCTGCCGGAGTCACCTAGTGCAG”, the binding signal is reported as 8390 fluorescence intensity (a.u.). With “AAACTGTTCTCCTCCACTTGCCTATCTTATCCTCTCTTATCGGAGTCACCTAGTGCAG” the binding signal was 8930 fluorescence intensity (a.u.). “GACCTTTTCTTATACTGTATCATATTTTAGTTGATTATCACGGAGTCACCTAGTGCAG” was tested, and the binding signal was 10200 fluorescence intensity (a.u.). With “ACCGTTGTACATGTCCTAACAGTTATAATCATACAACAGACGGAGTCACCTAGTGCAG” the binding signal was 9010 fluorescence intensity (a.u.). With “CCACCACCGCACTCAACTCAACTCGTGTCCTTTTTCACGACGGAGTCACCTAGTGCAG” the binding signal was 10400 fluorescence intensity (a.u.). In the case of “CGTTGTTTATCTTTTCTAATGCCATGTGTATATATGATTCCGGAGTCACCTAGTGCAG”, the binding signal is reported as 10500 fluorescence intensity (a.u.). For “GGTGGGTTGTTTTTTCAGCATGGTGTTCTTTTAGGGAGAGCGGAGTCACCTAGTGCAG”, the binding signal was 12400 fluorescence intensity (a.u.). For “CCACGGCGTCCTCGAACTTGATCGCGCTGTCCAACAACCCCGGAGTCACCTAGTGCAG”, the binding signal was 9020 fluorescence intensity (a.u.). In the case of “CCTCTGAGTCTATCTCTCTCATCTGATTCCTGCGTTTTTCCGGAGTCACCTAGTGCAG”, the binding signal is reported as 14100 fluorescence intensity (a.u.). “CTGTTGTTTTCAGTTCAGTCATTGAATCATTTACTATGCTCGGAGTCACCTAGTGCAG” was tested, and the binding signal was 11200 fluorescence intensity (a.u.). In the case of “TCGTCGATCATCAACCGCATCAGCATCCATCCATCCATCCCGGAGTCACCTAGTGCAG”, the binding signal is reported as 8190 fluorescence intensity (a.u.). With “AGCGCTCCGGGGCTTTTTTGGCTGGCGTGTTCGCTTCCGGCGGAGTCACCTAGTGCAG” the binding signal was 9780 fluorescence intensity (a.u.). For “GAGGCAGTGTGTTGTGGAGTCGTATGGCGAGTCCTTGTCTCGGAGTCACCTAGTGCAG”, the binding signal was 9030 fluorescence intensity (a.u.). For “AGATCTCTGCCGTCGCTGGCACCATCTCTCTATGGTACATCGGAGTCACCTAGTGCAG”, the binding signal was 8360 fluorescence intensity (a.u.). With “TTGGTAGTTTGCATGTTAGCCTGGCTGTATCACTTTCAGACGGAGTCACCTAGTGCAG” the binding signal was 8400 fluorescence intensity (a.u.). “ACACACTCCTAACGCATCGCCGGCGCTTTGATTTCTATAACGGAGTCACCTAGTGCAG” was tested, and the binding signal was 10800 fluorescence intensity (a.u.). For “ATGCTAATGAGTTTTCTTGTTTCGTGTGCACTCTAAATATCGGAGTCACCTAGTGCAG”, the binding signal was 8130 fluorescence intensity (a.u.). With “GGTCGTGCGGGTTAGAGCATTCGCGATATTTAGGGTCCTACGGAGTCACCTAGTGCAG” the binding signal was 9730 fluorescence intensity (a.u.). “AGCGGCTAGCTCTTGATTTTTTTTCTCTTCATTTTTGTACCGGAGTCACCTAGTGCAG” was tested, and the binding signal was 8290 fluorescence intensity (a.u.). In the case of “GCTACTATGTATTGCGTTAGGTTTGACTATTTTATGCCTTCGGAGTCACCTAGTGCAG”, the binding signal is reported as 10300 fluorescence intensity (a.u.). With “CTGCTAAAATTTGACTAGGTTGTTAACATGCCATTTTTTTCGGAGTCACCTAGTGCAG” the binding signal was 8920 fluorescence intensity (a.u.). With “ACATCATCTCTACAGTGCATCATCCCATCCATCCATCTTTCGGAGTCACCTAGTGCAG” the binding signal was 10500 fluorescence intensity (a.u.). In the case of “GAAAACCATTATCTTCATGTTTATATGATTGCAACTAATTCGGAGTCACCTAGTGCAG”, the binding signal is reported as 8970 fluorescence intensity (a.u.). In the case of “CAAACTCCAAACACCACCTGCAGCTTTCAATTCCATTATTCGGAGTCACCTAGTGCAG”, the binding signal is reported as 8330 fluorescence intensity (a.u.). For “TAACATATGTTTGGTTTGTTACCCTACTAGAGTTTTATAACGGAGTCACCTAGTGCAG”, the binding signal was 9100 fluorescence intensity (a.u.). In the case of “CGAGGTGTGTCTCTCTCCCGTTCACCCGTCCGTATCCTTCCGGAGTCACCTAGTGCAG”, the binding signal is reported as 11100 fluorescence intensity (a.u.). “CGAGCCGAATGCTGCCTACTGCCGCCGCTTTTTTTTTTTCCGGAGTCACCTAGTGCAG” was tested, and the binding signal was 11300 fluorescence intensity (a.u.). “GCTACACTTGTCCTCATTTACCAACACACAAGCTCTCCCTCGGAGTCACCTAGTGCAG” was tested, and the binding signal was 8080 fluorescence intensity (a.u.). With “GCGAGCGACTTCCCCATGGTCAACAAATTTAAATTTATAGCGGAGTCACCTAGTGCAG” the binding signal was 8980 fluorescence intensity (a.u.). With “TTTTTTATATATTACACTGCTTCTTATATTCAGGTTTTTACGGAGTCACCTAGTGCAG” the binding signal was 8770 fluorescence intensity (a.u.). “ACCATCTCATTCTCATTCTCTTCTCTCTCTAGTTCTCATGCGGAGTCACCTAGTGCAG” was tested, and the binding signal was 10200 fluorescence intensity (a.u.). In the case of “TCACTCGAGCTTCACACCTGTGTCAGATCTCGGAATCACTCGGAGTCACCTAGTGCAG”, the binding signal is reported as 9240 fluorescence intensity (a.u.). In the case of “TAGGGGTCAAGATATCTGGTTTTGCGGTTCAGGGTCATGACGGAGTCACCTAGTGCAG”, the binding signal is reported as 9980 fluorescence intensity (a.u.). With “AAACTCTCACTCGCTCACTCACACCTCACACGCTGCTGCTCGGAGTCACCTAGTGCAG” the binding signal was 8070 fluorescence intensity (a.u.). “CGCCGTCACGCACCCACGCACGCACGCACGCACGCATATACGGAGTCACCTAGTGCAG” was tested, and the binding signal was 9180 fluorescence intensity (a.u.). For “ACATTGATGTACTTTTTCCCACTCTGTTTGATCCATTTGACGGAGTCACCTAGTGCAG”, the binding signal was 10600 fluorescence intensity (a.u.). “TCCCGACACCGGCTGTCCACTTCGCTCTGCTCCACGCCGCCGGAGTCACCTAGTGCAG” was tested, and the binding signal was 8660 fluorescence intensity (a.u.). With “CCGTTTCTTGCATGCCACCTACATGATTATGAAAAAATTCCGGAGTCACCTAGTGCAG” the binding signal was 9760 fluorescence intensity (a.u.). For “CTCAAGCAACATGTTCTTGTGTCCTTGGTTGGCCTCCATGCGGAGTCACCTAGTGCAG”, the binding signal was 8400 fluorescence intensity (a.u.). With “CTATTTTTCCTTTTCTTTATTTTTAAAGCTATCGCCAAACCGGAGTCACCTAGTGCAG” the binding signal was 8870 fluorescence intensity (a.u.). For “ATCCTCTTCTTGCTTCACCTGCTGCCCTCTGCTCCGGTCGCGGAGTCACCTAGTGCAG”, the binding signal was 8050 fluorescence intensity (a.u.). For “GTATGGATCTATGTTGTCTTATTTAGTACTGTGTTACTATCGGAGTCACCTAGTGCAG”, the binding signal was 10100 fluorescence intensity (a.u.). In the case of “GCACGCTCCGCAGCTCCGCCGCGCTCACGTACCCGTCCCCCGGAGTCACCTAGTGCAG”, the binding signal is reported as 8590 fluorescence intensity (a.u.). For “TTTTTGACTTTGACTTTTAATAGTAAAAAAATCAATTATGCGGAGTCACCTAGTGCAG”, the binding signal was 9900 fluorescence intensity (a.u.). In the case of “TACTAATCTCTCCCTGTAAAGCTCAGTTCCTGCATTAAATCGGAGTCACCTAGTGCAG”, the binding signal is reported as 9330 fluorescence intensity (a.u.). For “TGTACAGTTGGTTCTTTTCTTTTTTTTTTTCAGTTGAGTCCGGAGTCACCTAGTGCAG”, the binding signal was 9330 fluorescence intensity (a.u.). For “GCCCACCATTAGGGCGGCAGGGGCTATTTCTACAATTTTTCGGAGTCACCTAGTGCAG”, the binding signal was 8350 fluorescence intensity (a.u.). For “ATGGGAACCCAGCTTTCGATTGAAATTTAGAATATTTTTCCGGAGTCACCTAGTGCAG”, the binding signal was 8530 fluorescence intensity (a.u.). For “GTTGCTGTTTTTGATGGTCGTTGAGACAGATAGTTTGGTACGGAGTCACCTAGTGCAG”, the binding signal was 8360 fluorescence intensity (a.u.). “CTTCCATTTCCACGTGCTCATTCACGCCCGCATCATAAACCGGAGTCACCTAGTGCAG” was tested, and the binding signal was 14200 fluorescence intensity (a.u.). For “CTCTGCTCCTTCGTCCTCGGCCCCGGCGACGCCGCCTCCGCGGAGTCACCTAGTGCAG”, the binding signal was 10500 fluorescence intensity (a.u.). In the case of “GTGTACTCCCTTCGTTTCATATATTATAAATTGCTTTGACCGGAGTCACCTAGTGCAG”, the binding signal is reported as 10600 fluorescence intensity (a.u.). With “CCCCGCTGCTTCTTCCGCCGCATCCTTCGCTCGCTCGCTGCGGAGTCACCTAGTGCAG” the binding signal was 11700 fluorescence intensity (a.u.). “AATTTTTTCGTCACATCGTTCTAATTTTAACCAAAATTATCGGAGTCACCTAGTGCAG” was tested, and the binding signal was 9290 fluorescence intensity (a.u.).
